Results: patent publication US8642728
These are yes or no findings as the source states them, for the method shown. Some results given as binding are weak or reduced against the parent protein; the word gives no strength. Sequences can lack the tags named with a protein.

The chains behind the UniProt entries cited, without tags or fusion partners. Residues count along the entry.
UniProt P02459, residues 182-1241: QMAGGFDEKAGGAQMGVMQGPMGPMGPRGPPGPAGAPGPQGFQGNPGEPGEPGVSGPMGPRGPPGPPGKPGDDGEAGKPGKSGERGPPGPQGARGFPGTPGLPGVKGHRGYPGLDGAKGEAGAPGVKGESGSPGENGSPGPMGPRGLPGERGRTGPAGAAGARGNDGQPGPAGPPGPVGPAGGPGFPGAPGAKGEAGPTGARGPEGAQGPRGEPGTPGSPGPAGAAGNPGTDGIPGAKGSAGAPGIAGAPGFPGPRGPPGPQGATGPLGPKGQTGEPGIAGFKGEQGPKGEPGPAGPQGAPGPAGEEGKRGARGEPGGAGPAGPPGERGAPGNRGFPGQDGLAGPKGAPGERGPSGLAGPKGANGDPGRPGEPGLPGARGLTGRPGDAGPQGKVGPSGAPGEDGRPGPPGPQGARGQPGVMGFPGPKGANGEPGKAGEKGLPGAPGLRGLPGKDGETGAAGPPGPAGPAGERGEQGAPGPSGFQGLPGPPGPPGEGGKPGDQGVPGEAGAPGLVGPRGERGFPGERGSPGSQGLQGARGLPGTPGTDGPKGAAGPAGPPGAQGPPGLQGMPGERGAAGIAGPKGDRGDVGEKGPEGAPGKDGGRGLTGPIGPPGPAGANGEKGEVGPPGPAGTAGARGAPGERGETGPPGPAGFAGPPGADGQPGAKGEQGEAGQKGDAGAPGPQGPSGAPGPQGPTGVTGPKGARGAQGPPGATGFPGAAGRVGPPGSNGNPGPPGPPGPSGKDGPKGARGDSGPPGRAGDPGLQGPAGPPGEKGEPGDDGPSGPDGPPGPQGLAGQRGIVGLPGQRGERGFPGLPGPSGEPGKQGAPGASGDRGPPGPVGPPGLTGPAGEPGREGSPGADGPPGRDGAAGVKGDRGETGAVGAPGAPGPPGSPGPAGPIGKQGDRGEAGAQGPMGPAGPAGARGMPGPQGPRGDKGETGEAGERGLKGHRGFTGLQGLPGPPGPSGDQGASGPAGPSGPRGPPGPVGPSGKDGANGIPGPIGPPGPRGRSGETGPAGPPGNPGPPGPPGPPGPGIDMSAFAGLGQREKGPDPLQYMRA
UniProt P02461, residues 154-1221: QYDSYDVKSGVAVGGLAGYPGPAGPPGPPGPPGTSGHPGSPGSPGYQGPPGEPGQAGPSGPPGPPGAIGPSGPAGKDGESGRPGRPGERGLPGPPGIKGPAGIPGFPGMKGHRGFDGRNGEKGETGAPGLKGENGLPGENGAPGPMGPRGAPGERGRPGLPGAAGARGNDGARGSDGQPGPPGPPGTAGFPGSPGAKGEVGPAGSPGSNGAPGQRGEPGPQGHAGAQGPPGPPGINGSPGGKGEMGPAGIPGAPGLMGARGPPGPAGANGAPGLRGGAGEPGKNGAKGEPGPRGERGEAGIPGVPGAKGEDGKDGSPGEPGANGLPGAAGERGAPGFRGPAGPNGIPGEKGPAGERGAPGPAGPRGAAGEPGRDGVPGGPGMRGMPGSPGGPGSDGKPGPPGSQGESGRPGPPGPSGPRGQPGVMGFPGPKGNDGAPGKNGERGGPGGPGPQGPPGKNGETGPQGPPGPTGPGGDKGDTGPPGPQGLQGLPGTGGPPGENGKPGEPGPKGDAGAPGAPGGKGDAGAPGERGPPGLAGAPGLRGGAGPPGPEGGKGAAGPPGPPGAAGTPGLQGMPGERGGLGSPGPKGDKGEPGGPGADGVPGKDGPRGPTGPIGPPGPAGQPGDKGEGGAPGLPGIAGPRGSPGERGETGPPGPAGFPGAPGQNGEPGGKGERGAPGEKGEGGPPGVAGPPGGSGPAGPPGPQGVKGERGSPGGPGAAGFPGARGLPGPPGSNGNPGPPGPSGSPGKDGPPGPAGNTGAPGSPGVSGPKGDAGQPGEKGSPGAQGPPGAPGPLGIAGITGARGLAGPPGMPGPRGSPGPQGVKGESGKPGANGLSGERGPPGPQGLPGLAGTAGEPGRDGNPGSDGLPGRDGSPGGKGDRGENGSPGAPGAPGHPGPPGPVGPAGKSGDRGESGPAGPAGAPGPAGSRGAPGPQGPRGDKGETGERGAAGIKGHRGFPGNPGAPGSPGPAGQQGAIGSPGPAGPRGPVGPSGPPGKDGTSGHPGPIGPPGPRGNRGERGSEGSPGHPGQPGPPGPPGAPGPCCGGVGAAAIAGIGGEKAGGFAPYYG

Columns and labels:
[1] = target: collagen II Toolkit peptide II-1; experiment: ELISA screen of plate-bound collagen II Toolkit peptides
[2] = target: collagen II Toolkit peptide II-26; experiment: as above
[3] = target: collagen II Toolkit peptide II-35; experiment: as above
[4] = target: collagen II Toolkit peptide II-45; experiment: as above
[5] = target: collagen III Toolkit peptide III-36; experiment: ELISA screen of plate-bound collagen III Toolkit peptides
[6] = target: type II collagen (bovine) (UniProt P02459); experiment: solid-phase ELISA; coated collagen, Fc-fusion 5 µg/ml, OD450
[7] = target: type III collagen (human) (UniProt P02461); experiment: as above
[8] = target: GPC(GPP)5GAOGASGDR(GPP)5GPC-NH2; experiment: OSCAR-Fc ELISA on substituted triple-helical peptides (FIG. 8)
[9] = target: GPC(GPP)5GAOGPAGSA(GPP)5GPC-NH2; experiment: as above
[10] = target: GPC(GPP)5GAOGPAGYA(GPP)5GPC-NH2; experiment: as above
[11] = target: collagen II Toolkit peptide II-1; experiment: ELISA screen of plate-bound Toolkit peptides with OSCAR-Fc (Table 4)
[12] = target: collagen II Toolkit peptide II-26; experiment: as above
[13] = target: collagen II Toolkit peptide II-35; experiment: as above
[14] = target: collagen II Toolkit peptide II-45; experiment: as above
[15] = target: collagen III Toolkit peptide III-36; experiment: as above
[16] = target: GPC(GPP)5-GAOGPAGFA-(GPP)5GPC-NH2; experiment: told in the legend of FIG. 13; binding shown by OSCAR-Fc ELISA (FIGS. 7, 8)

Measured: binding

B1: human OSCAR-Fc fusion protein (Fc fusion, UniProt Q8IYS5 19-220, looked up, not shown: a dimerising Fc or GST)
chain: DITPSVPPASYHPKPWLGAQPATVVTPGVNVTLRCRAPQPAWRFGLFKPGEIAPLLFRDVSSELAEFFLEEVTPAQGGIYRCCYRRPDWGPGVWSQPSDVLELLVTEELPRPSLVALPGPVVGPGANVSLRCAGRLRNMSFVLYREGVAAPLQYRHSAQPWADFTLLGARAPGTYSCYYHTPSAPYVLSQRSEVLVISWEGE
binds: all assays above
